{
  "sequences": {"note": "Chains of the proteins cited; added tags and fusions are not shown. Residues count along the entry.", "UniProt P21860, residues 20-643": "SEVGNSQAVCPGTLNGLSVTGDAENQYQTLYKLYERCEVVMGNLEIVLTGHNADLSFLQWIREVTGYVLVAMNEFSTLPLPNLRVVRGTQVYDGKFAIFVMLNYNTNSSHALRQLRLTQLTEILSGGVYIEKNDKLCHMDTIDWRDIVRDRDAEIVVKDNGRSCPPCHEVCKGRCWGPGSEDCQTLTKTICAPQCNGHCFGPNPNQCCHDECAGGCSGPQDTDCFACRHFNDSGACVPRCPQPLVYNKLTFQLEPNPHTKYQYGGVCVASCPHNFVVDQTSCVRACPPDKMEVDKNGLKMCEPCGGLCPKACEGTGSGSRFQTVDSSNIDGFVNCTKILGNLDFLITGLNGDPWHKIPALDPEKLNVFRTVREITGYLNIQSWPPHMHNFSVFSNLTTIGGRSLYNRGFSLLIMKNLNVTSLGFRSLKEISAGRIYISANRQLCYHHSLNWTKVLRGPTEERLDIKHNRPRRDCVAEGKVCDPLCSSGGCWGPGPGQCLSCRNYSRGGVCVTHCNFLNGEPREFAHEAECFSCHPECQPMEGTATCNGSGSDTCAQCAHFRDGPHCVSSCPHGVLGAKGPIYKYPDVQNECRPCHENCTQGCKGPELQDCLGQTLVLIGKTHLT"},
  "source": "patent US20160046678A1",
  "about": "(ZYNGENIA, published 2016)",
  "note": "These are yes or no findings as the source states them, for the method shown. Some binding calls cover weakened binding; strength is not graded here.",
  "data": [
    {"target": "ErbB3 (UniProt P21860)", "test": "MRD screen, Example 48", "values": [
      {"binder": "YSKPYCPFINPIWKEQCIARH", "note": "[EGC548]", "binding": "binds"},
      {"binder": "LIEPYCPFLNPTWYDQCIARS", "note": "[EGC554]", "binding": "binds"},
      {"binder": "REVPYCPFLNPIWKEQCIIRT", "note": "[EGC557]", "binding": "binds"},
      {"binder": "SLQAYCPFVNPTWKNECLARI", "note": "[EGC561]", "binding": "binds"},
      {"binder": "LSEAYCPFLNPTWKQHCIALT", "note": "[EGC563]", "binding": "binds"},
      {"binder": "MSEPYCPFLNPTWKEQCLARS", "note": "[EGC564]", "binding": "binds"},
      {"binder": "LNEPYCPFLNPIWKNQCIARL", "note": "[EGC565]", "binding": "binds"},
      {"binder": "PSKPYCPFLNPYWKAECMSRS", "note": "[EGC566]", "binding": "binds"},
      {"binder": "ISEPYCPFLNPTWKDACIARS", "note": "[EGC568]", "binding": "binds"},
      {"binder": "PDSWCHTLYWDLLYCVNQE", "note": "[EGC570]", "binding": "binds"},
      {"binder": "QGQPYCPFVNPIWYAECMTRT", "note": "[EGC572]", "binding": "binds"},
      {"binder": "RPEPYCPFKNPNWKEQCLARY", "note": "[EGC578]", "binding": "binds"},
      {"binder": "SSEPYCPFINPTWKQECIART", "note": "[EGC579]", "binding": "binds"},
      {"binder": "TTEPYCPFLNPIWKDQCIARW", "note": "[EGC582]", "binding": "binds"},
      {"binder": "VSEPYCPFLNPYWKDQCIARH", "note": "[EGC583]", "binding": "binds"},
      {"binder": "YNEPYCPFLNPTWKDQCLARI", "note": "[EGC584]", "binding": "binds"},
      {"binder": "RSEPYCPFYNPIWYDHCVALT", "note": "[EGC585]", "binding": "binds"},
      {"binder": "NPEPYCPFLNPIWKEQCILRS", "note": "[EGC586]", "binding": "binds"},
      {"binder": "LSGLYCPFLNPTWKDQCIARM", "note": "[EGC589]", "binding": "binds"},
      {"binder": "ISQPYCPFTNPTWLAECIARS", "note": "[EGC590]", "binding": "binds"},
      {"binder": "LNTPYCPFINPTWKDECLARS", "note": "[EGC592]", "binding": "binds"},
      {"binder": "YEEHCRLFPADWICSLLQ", "note": "[EGC594]", "binding": "binds"},
      {"binder": "NSEPYCPFLNPSWKAQCIARS", "note": "[EGC595]", "binding": "binds"},
      {"binder": "ADSWCHTLYWNLRHCEIQE", "note": "[EGC596]", "binding": "binds"},
      {"binder": "SSEPYCPFLNPTWKEQCIART", "note": "[EGC597]", "binding": "binds"},
      {"binder": "DTKPYCPFLNPIWKNQCIERT", "note": "[EGC599]", "binding": "binds"},
      {"binder": "TRDPYCPFLNPIWKDECFART", "note": "[EGC600]", "binding": "binds"},
      {"binder": "KEEAYCPFLNPLWKDECVART", "note": "[EGC601]", "binding": "binds"},
      {"binder": "PESWCHTLYWNLQHCLSQE", "note": "[EGC602]", "binding": "binds"},
      {"binder": "MSEPYCPFQNPTWKHECIART", "note": "[EGC603]", "binding": "binds"},
      {"binder": "DSDPYCPFVNPIWKAQCIARS", "note": "[EGC604]", "binding": "binds"},
      {"binder": "YSEPYCPFVNPTWLDQCIART", "note": "[EGC605]", "binding": "binds"},
      {"binder": "YSEPYCPFLNPTWKAQCMAMI", "note": "[EGC606]", "binding": "binds"},
      {"binder": "LSEPYCPFLNPTWKAACLARI", "note": "[EGC608]", "binding": "binds"},
      {"binder": "IRKPYCPFLNPTWYNECIQRS", "note": "[EGC609]", "binding": "binds"},
      {"binder": "QGEPYCPFLNPAWKDACIERL", "note": "[EGC610]", "binding": "binds"},
      {"binder": "GSEPYCPFFNPIWKDQCITRF", "note": "[EGC612]", "binding": "binds"},
      {"binder": "RSEPYCPFLNPTWKEHCIART", "note": "[EGC613]", "binding": "binds"},
      {"binder": "TNEPYCPFLNPTWKQQCIART", "note": "[EGC614]", "binding": "binds"},
      {"binder": "TSEPYCPFENPIWKAQCISRS", "note": "[EGC615]", "binding": "binds"},
      {"binder": "KSEPYCPFLNPYWKDQCIARS", "note": "[EGC616]", "binding": "binds"},
      {"binder": "LREPYCPFLNPTWKAECIARI", "note": "[EGC617]", "binding": "binds"},
      {"binder": "KGQPYCPFLNPIWKEQCLART", "note": "[EGC620]", "binding": "binds"},
      {"binder": "SSEAYCPFLNPTWKQECIARL", "note": "[EGC621]", "binding": "binds"},
      {"binder": "ANSWCHTLYWDLMYCVWQE", "note": "[EGC623]", "binding": "binds"},
      {"binder": "TIEPYCPFLNPIWKDQCIARS", "note": "[EGC624]", "binding": "binds"},
      {"binder": "QHEPYCPFLNPVWKHECIART", "note": "[EGC625]", "binding": "binds"},
      {"binder": "IREPYCPFLNPTWKAQCIART", "note": "[EGC626]", "binding": "binds"},
      {"binder": "HSAPYCPFLNPIWKDECIARS", "note": "[EGC627]", "binding": "binds"},
      {"binder": "VSEPYCPFLNPTWKAHCIELS", "note": "[EGC628]", "binding": "binds"},
      {"binder": "SSDPYCPFLNPTWYDQCIERY", "note": "[EGC629]", "binding": "binds"},
      {"binder": "ISDPYCPFVNPYWKAECIART", "note": "[EGC630]", "binding": "binds"},
      {"binder": "NIDPYCPFLNPTWKAECIARI", "note": "[EGC631]", "binding": "binds"},
      {"binder": "PREPYCPFLNPLWKNQCIERT", "note": "[EGC632]", "binding": "binds"},
      {"binder": "IRVPYCPFQNPTWYDQCIART", "note": "[EGC634]", "binding": "binds"},
      {"binder": "PDSWCHTLYWHLQHCLSQE", "note": "[EGC635]", "binding": "binds"},
      {"binder": "TNDPYCPFLNPTWKAECIARH", "note": "[EGC636]", "binding": "binds"},
      {"binder": "VSEPYCPFLNPTWKAQCLNRI", "note": "[EGC637]", "binding": "binds"},
      {"binder": "PIDPYCPFLNPIWKEQCHARS", "note": "[EGC638]", "binding": "binds"},
      {"binder": "VREPYCPFLNPTWKNECIART", "note": "[EGC639]", "binding": "binds"},
      {"binder": "LIEPYCPFLNPIWKDQCLART", "note": "[EGC640]", "binding": "binds"},
      {"binder": "PKFFMCQVYPSGKWHVCTGTV", "note": "[EGC641]", "binding": "binds"},
      {"binder": "PKYYMCQIYPSLKWNVCLETL", "note": "[EGC642]", "binding": "binds"},
      {"binder": "LNFYICKLYPSANLHVCVDTL", "note": "[EGC644]", "binding": "binds"},
      {"binder": "RSEPYCPFLNPVWKDQCIARS", "note": "[EGC646]", "binding": "binds"},
      {"binder": "SSEPYCPFLNPIWKYHCIARS", "note": "[EGC647]", "binding": "binds"},
      {"binder": "PGSPYCPFLNPFWKEQCIVRT", "note": "[EGC648]", "binding": "binds"},
      {"binder": "YEEHCALFPTDWICTLH", "note": "[EGC649]", "binding": "binds"}
    ]}
  ]
}
